Data taken from patent publication US20100285030A1.
These are yes or no findings as the source states them, for the method shown. Some entries that bind do so weakly or less than the wild type.

Target: T1, CD200 (human) (UniProt P41217)
T1 sequence (looked up): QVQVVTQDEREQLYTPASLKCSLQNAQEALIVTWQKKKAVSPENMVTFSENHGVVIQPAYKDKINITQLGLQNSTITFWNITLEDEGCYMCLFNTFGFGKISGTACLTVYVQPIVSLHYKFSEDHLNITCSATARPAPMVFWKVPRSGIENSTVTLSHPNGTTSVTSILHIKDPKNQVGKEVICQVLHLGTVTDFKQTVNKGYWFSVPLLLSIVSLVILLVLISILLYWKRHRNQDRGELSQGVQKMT
Test: flow cytometry, Zenon-Alexa488-labelled C2aB7 on NCI60 cancer cell lines, ratio stained/unstained

B1: C2aB7 (antibody, human IgG1, kappa, V domains shown)
VH: EVQLQQSGPELVKPGASLKMSCKASGYSFTDYIILWVKQNHGKSLEWIGHIDPYYGSSNYNLKFKGKATLTVDKSSSTAYMQLNSLTSEDSAVYYCGRSKRDYFDYWGQGTTLTVSS
VL: DIQMTQSPSSMYASLGERVTITCKASQDINSYLSWFQQKPGKSPKTLIYRANRLVDGVPSRFSGSGSGQDYSLTISSLEYEDMGIYYCLQYDEFPYTFGGGTKLEIKR
B1 was tested, and the binding was “binds”.
